Some of the results follow. Further columns of the screen follow, without active or inactive calls. Most of these compounds were active or inconclusive in the main read-out, so they are no random draw. Potencies come from curve fits of mixed quality, noted in brackets.

A short description of the test: qHTS Assay for Lipid Storage Modulators in Drosophila S3 Cells.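 For cell number change: cells counted by Cell Tracker Red CMTPX staining in the red channel.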 The settings on record: BODIPY lipid droplet fluorescence, 18-24 h; for cell number change: measured here: cell count max response, cells fed with added oleic acid. Summed up: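 Drosophila S3 cells loaded with oleic acid (400 uM, as added) and compounds at several concentrations; lipid droplets imaged by 488-nm laser-scanning cytometry, 500–530 nm intensity and object ratio to cell channel. Percent activity normalized to 20 uM Triacsin C.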

Setting [1] is: measured here: lipid fluorescence (Fed channel) AC50, cells fed with added oleic acid.
The mark [2] stands for this setting: measured here: cell number channel AC50, cells fed with added oleic acid.

With `Cc1sc(NC(=O)COc2ccccc2)c(C#N)c1-c1ccccc1`, the cell number change amounted to 18.4%. Further, the concentration at half-maximal activity (AC50) (usually the concentration at which the activity in the assay is half-maximal) under setting [1] is 29.1 µM [rising, partial curve, poor fit].
On to `O=C(CCCN1C(=O)c2cccc3cccc(c23)C1=O)N1CCN(Cc2ccc3c(c2)OCO3)CC1`, for which the cell number change amounted to 49.9%.
On the same count and under the same terms, with `O=C1Nc2ccccc2N(O)N1c1cc(-c2ccccc2)[nH]n1` the figure was 39.3%.
`CN(C)c1ccc(C(C#N)c2ccccc2)nn1` (stereo unspecified): the cell number change worked out at 18.7%. Also, the AC50 under setting [1] was 0.651 µM [rising, full curve, poor fit].
Turning to `O=C(N/N=C/c1ccc(-c2ccccc2[N+](=O)[O-])o1)c1cccnc1`, the cell number change was found to be 84.5%. Moreover, the AC50 under setting [2] was 10.3 µM [rising, partial curve]. For the same compound, the AC50 under setting [1] is 0.291 µM [rising, full curve].
In the case of `O=C1C2C3C=CC(C3)C2C(=O)N1c1cccc(-c2nc3ccccc3o2)c1` (stereo unspecified), the cell number change is 5.31%. For the same compound, the AC50 under setting [1] is 4.11 µM [rising, partial curve, poor fit].
Turning to `CC(=O)Nc1ccc(S(=O)(=O)N2CCN(S(=O)(=O)N3CCC(C)CC3)CC2)cc1`, the cell number change came to 22.7%. Moreover, under setting [1], the half-maximal activity concentration (AC50) is 20.6 µM [falling, single point].
For the compound `CCCCSc1nc2c(cc1C#N)CCC2`, the cell number change came out at 216%. The AC50 under setting [2] is 16.4 µM [rising, partial curve].
With `N#C/C(=C\c1ccc(-c2ccc(C(=O)O)cc2)o1)C(=O)Nc1ccc(F)cc1`, the cell number change came to 128%. Also, the AC50 under setting [2] was 29.1 µM [rising, single point].
As for `Cc1ccn2c(=O)nc(SCC(=O)Nc3cccc4ccccc34)nc2c1`, the cell number change came to 55.8%. For the same compound, under setting [2], the AC50 is 29.1 µM [rising, single point].
For the compound `CCn1cnc2sc(C(=O)N3CCN(Cc4ccc5c(c4)OCO5)CC3)c(C)c2c1=O`, the cell number change was found to be 23.6%. Further, the AC50 under setting [1] was 29.1 µM [rising, single point].
`COc1ccc(C(=O)OCC(=O)Nc2ccc3[nH]c(=O)[nH]c3c2)cc1`: the cell number change worked out at 5.72%. In addition, under setting [1], the AC50 was 29.1 µM [rising, single point].
For `CSc1nc2nc3c(cn2n1)C(=O)CC(c1ccccc1)C3` (stereo unspecified), the cell number change amounted to 40.5%. Moreover, the AC50 under setting [2] was 6.51 µM [rising, partial curve, poor fit]. Further, the AC50 under setting [1] is 2.31 µM [rising, full curve].
Turning to `CC(C)(C)NC(=O)C1Cc2ccccc2CN1S(=O)(=O)c1ccc(F)cc1` (stereo unspecified), the cell number change is -10.5%. The AC50 under setting [2] is 0.0651 µM [rising, full curve, poor fit].
For the compound `COc1ccc(CCNC(=O)CCCCn2c(=O)[nH]c3ccccc3c2=O)cc1OC`, the cell number change was -20.6%.
Turning to `CCC(C)NC(=O)c1ccc(CSc2nc3ccncc3n2Cc2ccc(F)cc2)cc1` (stereo unspecified), the cell number change was 1.83%. Moreover, the AC50 under setting [1] is 18.4 µM [falling, single point].
Turning to `CC(=O)NC(c1ccc(Cl)cc1)c1c(O)ccc2ccc(O)cc12` (stereo unspecified), the cell number change is -26.3%. Further, under setting [1], the AC50 is 0.00411 µM [falling, full curve, poor fit].
With `Cc1cc(S(=O)(=O)NCCc2ccccc2)c(C)s1`, the cell number change is -31.9%. Also, the AC50 under setting [2] was 14.6 µM [falling, partial curve, poor fit]. Also, under setting [1], the AC50 is 29.1 µM [falling, partial curve, poor fit].
Regarding `COc1ccccc1NC(=O)c1cc(=O)[nH]c2ccccc12`, the cell number change was -9.97%. Moreover, the concentration at half-maximal activity (AC50) under setting [1] was 14.6 µM [rising, partial curve].
As to `COc1cc2c(cc1OC)C(SC)=NC1(CCCC1)C2`, the cell number change is -24.7%.
`COC(=O)c1ccc(NC(=O)CCCN2C(=O)NC(C)(C)C2=O)cc1`: the cell number change turned out to be 61.2%. Moreover, under setting [2], the AC50 is 4.11 µM [falling, single point]. Under setting [1], the half-maximal activity concentration (AC50) was 13 µM [rising, partial curve].
`CNC1=C([N+](=O)[O-])CC([N+](=O)[O-])=C(N2CCNCC2)N1C`: the cell number change was -75.5%. The AC50 under setting [2] was 1.84 µM [falling, partial curve, poor fit].
Consider `O=C(c1ccccc1)N1CCCCC(S(=O)(=O)c2ccc3ccccc3c2)C1=O` (stereo unspecified), for which the cell number change was determined as 35.1%. Besides, the AC50 under setting [2] was 4.61 µM [rising, single point]. Under setting [1], the AC50 is 0.651 µM [falling, partial curve, poor fit].
Turning to `O=C(Nc1ccc(NC(=O)c2cccs2)cc1)c1ccc(Br)o1`, the cell number change stood at 106%. Moreover, the AC50 under setting [2] is 14.6 µM [rising, partial curve, poor fit]. For the same compound, the AC50 under setting [1] is 7.31 µM [rising, partial curve].
As for `Cc1cc(SCC(=O)OCC(=O)c2c(N)n(C)c(=O)n(C)c2=O)c(C)cc1Br`, the cell number change is -22.3%. Besides, under setting [1], the AC50 is 1.84 µM [falling, full curve].
For the compound `N#Cc1ccccc1OCCOCCNC1CCCC1`, the cell number change is 1.34%. Also, the AC50 under setting [2] was 0.366 µM [falling, partial curve, poor fit].
In the case of `CCC(OC(=O)c1ccco1)C(=O)NCc1ccc2c(c1)OCO2` (stereo unspecified), the cell number change came out at 20.8%.
`Fc1ccc(-c2nc3n(n2)Cc2ccccc2-3)cc1`: the cell number change amounted to 5.37%. For the same compound, the AC50 under setting [1] was 0.731 µM [rising, single point].
As to `CCCS(=O)(=O)n1nc(-c2ccccc2)cc1N`, the cell number change was -6.26%.
As for `S=C(NCCCc1ccccc1)Nc1ccc(Cl)cc1`, the cell number change is -46.5%. The AC50 under setting [2] is 16.4 µM [falling, partial curve]. In addition, the AC50 under setting [1] is 23.1 µM [falling, partial curve].
As to `CC1(C)C2CCC(C2)C1(C)NC(=O)CNCC1CCCCC1` (stereo unspecified), the cell number change was -2.84%. For the same compound, the AC50 under setting [2] was 6.51 µM [falling, single point].
Regarding `O=C(NCCN1CCN(C(=O)NC2CCCCC2)CC1)NC1CCCCC1`, the cell number change came out at 9.86%. The AC50 under setting [1] is 0.116 µM [falling, single point].
In the case of `COc1ccccc1/C=C/CN1CCOCC1`, the cell number change is 2.84%. Also, the AC50 under setting [2] was 5.17 µM [falling, single point].
For `Cc1ccc(S(=O)(=O)/N=C2/C=C(Sc3ncn[nH]3)C(=O)c3ccccc32)cc1`, the cell number change was -40.8%. The AC50 under setting [2] was 14.6 µM [falling, single point]. Further, under setting [1], the AC50 is 8.2 µM [falling, partial curve].
For the compound `COc1ccc(CNC(=O)CCNS(=O)(=O)c2ccc(C)cc2)cc1`, the cell number change was determined as 60.3%. The AC50 under setting [2] was 18.4 µM [rising, partial curve].
As for `COCc1cc(=O)n2[nH]c(C)cc2n1`, the cell number change is -20.5%. The concentration at half-maximal activity (AC50) under setting [2] is 0.13 µM [falling, full curve, poor fit]. Further, under setting [1], the AC50 was 29.1 µM [falling, partial curve].
As to `CSc1nnc(-c2ccccc2Cl)n1N`, the cell number change amounted to 4.17%. Besides, under setting [1], the AC50 is 23.1 µM [falling, single point].
For `CCc1nnc(NC(=O)CSc2nnc(-c3ccncc3)n2Cc2ccccc2)s1`, the cell number change was found to be 2.68%.
With `CCOC(=O)N1CCN(C(=O)CSc2nnc(-c3ccc(Cl)s3)o2)CC1`, the cell number change was 11.4%. Moreover, the AC50 under setting [2] is 2.59 µM [rising, single point]. Under setting [1], the AC50 is 29.1 µM [rising, single point].
Regarding `Cc1cc(NC(=O)CCN2CCC(C)CC2)ccc1Br`, the cell number change worked out at 0.794%. Also, the AC50 under setting [1] is 0.58 µM [rising, single point].
For the compound `O=C(NCc1ccccc1Cl)C1CCCN(S(=O)(=O)c2cccc3nonc23)C1` (stereo unspecified), the cell number change is 84.1%. Further, the AC50 under setting [2] was 18.4 µM [rising, single point]. For the same compound, the AC50 under setting [1] was 29.1 µM [rising, single point].
As for `COc1ccc(NS(=O)(=O)c2ccc(F)c(Cl)c2)cn1`, the cell number change was 15.2%. The AC50 under setting [1] was 29.1 µM [falling, partial curve, poor fit].
Consider `CC1CCCCN1C(=S)Nc1ccc2nc3n(c(=O)c2c1)CCCCC3` (stereo unspecified), for which the cell number change came out at 30.9%. Also, under setting [2], the AC50 was 5.17 µM [rising, partial curve, poor fit]. For the same compound, the AC50 under setting [1] was 6.51 µM [rising, single point].
As to `Cc1nc2ccccc2n1CC(=O)N/N=C/c1cccs1`, the cell number change was determined as 12.5%. In addition, under setting [1], the AC50 is 4.61 µM [falling, single point].
Turning to `CC1CCC2(CC1)NC(=O)N(CC(=O)Nc1cccnc1Cl)C2=O` (stereo unspecified), the cell number change was 2.22%. Also, the half-maximal activity concentration (AC50) under setting [1] was 0.0731 µM [falling, full curve, poor fit].
As for `CCCCn1c(N)c(N(CC(C)C)C(=O)c2cccc(S(=O)(=O)N(C)c3ccc(C)cc3)c2)c(=O)[nH]c1=O`, the cell number change was 13.5%. Also, the AC50 under setting [1] is 0.731 µM [falling, full curve].
`Cc1ccccc1NC(=O)CSc1nc(-c2cccs2)nc2cc(=O)[nH]n12`: the cell number change amounted to 30.5%. In addition, the AC50 under setting [2] is 13 µM [rising, partial curve, poor fit]. Besides, the AC50 under setting [1] was 13 µM [rising, partial curve, poor fit].
Regarding `C#CCNC(=O)c1ccc(OCc2ccccc2)cc1Cl`, the cell number change came to 19.8%. Under setting [1], the AC50 is 29.1 µM [rising, single point].
Take `CCn1c(CCNC(=O)c2cccs2)nnc1SCC(=O)NC1CCCCC1`: the cell number change was -13.9%. Besides, the AC50 under setting [1] was 18.4 µM [falling, single point].
For `CCOc1ccc(N2C(=O)CC(N(Cc3ccco3)C(=O)CCC(=O)O)C2=O)cc1` (stereo unspecified), the cell number change worked out at 16.6%.
Still for that read-out and setting: with `CC(NC(=O)c1ccc(-c2cc(C(F)(F)F)ccc2Cl)o1)c1ccccc1` (stereo unspecified) the figure was 6.78%.
With `O=C(Nc1ccc(S(=O)(=O)N2CCCCC2)cc1)C1CC(=O)N(c2ccc(Cl)cc2)C1` (stereo unspecified), the cell number change worked out at 26.1%. Besides, the AC50 under setting [1] was 23.1 µM [falling, single point].
Take `COc1ccccc1NC(=O)CN1C(=O)NC(C)(C)C1=O`: the cell number change is -9.64%. In addition, the AC50 under setting [1] was 0.0731 µM [falling, full curve].
For `COc1ccc(NC(=O)C2CCCN2C(=O)Nc2ccc(OC)cc2)cc1` (stereo unspecified), the cell number change came to 6.85%. Besides, the AC50 under setting [1] was 29.1 µM [rising, single point].
On to `COc1ccccc1OCC(=O)Nc1cc(S(=O)(=O)N2CCCCC2)ccc1N1CCCCC1`, for which the cell number change is 9.44%. Further, under setting [1], the AC50 was 2.91 µM [rising, single point].
For `Cc1ccc(OCC(=O)N2CC(C)OC(C)C2)c([N+](=O)[O-])n1` (stereo unspecified), the AC50 is 0.103 µM [rising, single point] under setting [2] and 0.13 µM [rising, single point] under setting [1].
As to `CC(=O)Oc1ccc2c(=O)c(-c3nc4ccccc4s3)coc2c1`, the cell number change was 28.5%.
As for `O=[n+]1c2c(n([O-])c3c1CCCC3)CCCCC2`, the cell number change is 6.65%. Further, the AC50 under setting [1] was 0.00461 µM [falling, full curve, poor fit].
In the case of `O=C(CSc1nc2ccccc2c(=O)n1-c1ccc(OC(F)F)cc1)NCc1cccs1`, the cell number change was -3.08%. Besides, the AC50 under setting [1] is 6.51 µM [rising, single point].

For the origin of these results see PubChem BioAssay AID2685 (National Center for Advancing Translational Sciences (NCATS), 2010).
